From US20060281675A1
These are yes or no findings as the source states them, for the method shown. Some entries that bind do so weakly or less than the wild type.

Sequences of proteins named here, by UniProt entry; tags and fusion partners are left off. A change or cut given only in a name is not applied to a line headed by its entry.
UniProt P01242: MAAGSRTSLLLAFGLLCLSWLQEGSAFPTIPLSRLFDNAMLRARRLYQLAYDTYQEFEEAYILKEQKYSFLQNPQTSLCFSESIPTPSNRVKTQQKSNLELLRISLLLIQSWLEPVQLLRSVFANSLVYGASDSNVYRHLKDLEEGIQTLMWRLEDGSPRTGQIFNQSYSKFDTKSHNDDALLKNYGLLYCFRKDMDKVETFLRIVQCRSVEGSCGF

Tests used:
[1] = biological target: T1, prolactin receptor in ovine hepatic microsomal membranes (ovine) (UniProt O46561); test: competitive radioreceptor assay, ovine hepatic microsomal membranes
T1 sequence (looked up): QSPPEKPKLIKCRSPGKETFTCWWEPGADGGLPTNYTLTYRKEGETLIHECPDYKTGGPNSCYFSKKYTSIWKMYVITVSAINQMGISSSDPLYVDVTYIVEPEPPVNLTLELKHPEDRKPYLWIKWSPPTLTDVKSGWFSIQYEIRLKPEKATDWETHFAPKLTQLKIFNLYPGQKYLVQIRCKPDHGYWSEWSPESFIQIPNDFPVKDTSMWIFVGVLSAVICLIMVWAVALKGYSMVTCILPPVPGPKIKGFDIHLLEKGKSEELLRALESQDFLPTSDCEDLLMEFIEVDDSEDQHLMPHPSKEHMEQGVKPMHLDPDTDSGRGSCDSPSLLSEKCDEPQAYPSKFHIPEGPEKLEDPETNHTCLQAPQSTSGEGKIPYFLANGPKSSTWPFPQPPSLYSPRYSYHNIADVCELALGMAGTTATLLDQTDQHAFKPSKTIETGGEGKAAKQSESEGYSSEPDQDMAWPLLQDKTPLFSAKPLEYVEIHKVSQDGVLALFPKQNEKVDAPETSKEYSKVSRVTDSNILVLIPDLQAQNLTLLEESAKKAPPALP

[2] = biological target: T1, prolactin receptor in ovine hepatic microsomal membranes (ovine); test: competition with 125I-rhGH, ovine hepatic microsomal membranes

Q: How did the binding [1] turn out when “22 kDa hGH-V (recombinant human 22 kDa placental growth hormone) (from UniProt P01242 27-217) (ligand)” was run?
A: The binding was “binds”.

Q: And the binding [2]?
A: Its binding is “binds”.

B1: recombinant bovine growth hormone (ligand, UniProt P01246 27-217, looked up)
chain: AFPAMSLSGLFANAVLRAQHLHQLAADTFKEFERTYIPEGQRYSIQNTQVAFCFSETIPAPTGKNEAQQKSDLELLRISLLLIQSWLGPLQFLSRVFTNSLVFGTSDRVYEKLKDLEEGILALMRELEDGTPRAGQILKQTYDKFDTNMRSDDALLKNYGLLSCFRKDLHKTETYLRVMKCRRFGEASCAF
modifications: 125I label (lactoperoxidase method) where used as the radioligand
Q: With B1 as the molecule, how does the binding [2] read?
A: The binding was “binds”.
